Laboratory results taken from article PMC3128581.
Results are given in words; binding and its absence hold for the method and conditions named. A result given as binding can be weak or reduced; the word gives no strength. Tags and fused reporters may be left off the sequences shown.

Molecular target: T1, Fc-NRP2 (UniProt O60462)
T1 sequence: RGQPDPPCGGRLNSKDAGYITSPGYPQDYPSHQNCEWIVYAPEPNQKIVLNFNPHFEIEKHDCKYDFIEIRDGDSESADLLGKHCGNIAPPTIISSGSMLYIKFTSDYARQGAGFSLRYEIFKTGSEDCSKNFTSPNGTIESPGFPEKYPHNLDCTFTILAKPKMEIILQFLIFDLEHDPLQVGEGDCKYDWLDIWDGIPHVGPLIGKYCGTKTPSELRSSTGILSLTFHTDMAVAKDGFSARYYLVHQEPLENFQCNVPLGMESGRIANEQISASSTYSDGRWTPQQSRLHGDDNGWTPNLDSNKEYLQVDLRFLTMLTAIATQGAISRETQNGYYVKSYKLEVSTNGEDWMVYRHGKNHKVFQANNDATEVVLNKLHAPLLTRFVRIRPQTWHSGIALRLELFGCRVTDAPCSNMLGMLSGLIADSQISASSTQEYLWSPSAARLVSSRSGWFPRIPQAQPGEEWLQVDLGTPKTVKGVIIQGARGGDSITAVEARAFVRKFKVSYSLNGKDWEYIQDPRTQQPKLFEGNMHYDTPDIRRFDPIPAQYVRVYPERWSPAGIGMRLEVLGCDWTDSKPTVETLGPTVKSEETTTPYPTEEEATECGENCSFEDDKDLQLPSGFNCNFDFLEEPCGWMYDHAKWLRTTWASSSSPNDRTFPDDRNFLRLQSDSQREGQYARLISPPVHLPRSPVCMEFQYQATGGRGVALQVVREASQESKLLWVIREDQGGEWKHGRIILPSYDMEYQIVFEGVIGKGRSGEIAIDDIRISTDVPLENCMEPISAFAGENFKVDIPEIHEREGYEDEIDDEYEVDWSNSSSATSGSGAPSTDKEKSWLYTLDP
Assay: SPR; Fc-NRP2 covalently grafted on a chemically activated self assembled monolayer of a homemade chip (7.4 +/- 0.1 femtomole/mm^2 of NRP2); analytes injected at 250 nM in PBS-Tween 0.05%, pH 7.4; Biacore 2000, 25°C, flow rate between 2 and 30 µl/min; both purified

With VEGF165 (ligand) the binding was “binds”.
